Results on two molecules are retold here after publication PMC3091322.

Experiment [1] deals with T1, FOXA2 (forkhead box A2) (human (endogenous in HepG2)) (UniProt Q9Y261).
T1 sequence: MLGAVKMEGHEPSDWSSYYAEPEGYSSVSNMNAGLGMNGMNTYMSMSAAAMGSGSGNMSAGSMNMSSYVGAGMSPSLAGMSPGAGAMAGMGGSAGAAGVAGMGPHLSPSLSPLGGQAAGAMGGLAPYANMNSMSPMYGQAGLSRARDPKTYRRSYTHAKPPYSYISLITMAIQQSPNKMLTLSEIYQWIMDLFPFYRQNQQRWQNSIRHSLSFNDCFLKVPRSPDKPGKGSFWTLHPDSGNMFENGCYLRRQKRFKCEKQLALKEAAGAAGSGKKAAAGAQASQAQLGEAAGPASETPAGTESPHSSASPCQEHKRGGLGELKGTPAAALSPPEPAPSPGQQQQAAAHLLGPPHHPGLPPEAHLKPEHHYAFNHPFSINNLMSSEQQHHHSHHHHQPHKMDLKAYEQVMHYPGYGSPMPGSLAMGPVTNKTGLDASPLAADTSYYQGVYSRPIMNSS
Put plainly: co-IP; endogenous proteins in precleared HepG2 nuclear lysate in RIPA buffer; antibody or IgG 1 μg per approximately 500 μg total protein with Protein G-agarose at 4°C overnight; washed twice with RIPA; western blot with the same FOXA antibodies, all six combinations.

Experiment [2] deals with T2, FOXA3 (forkhead box A3) (human (endogenous in HepG2)) (UniProt P55318).
T2 sequence: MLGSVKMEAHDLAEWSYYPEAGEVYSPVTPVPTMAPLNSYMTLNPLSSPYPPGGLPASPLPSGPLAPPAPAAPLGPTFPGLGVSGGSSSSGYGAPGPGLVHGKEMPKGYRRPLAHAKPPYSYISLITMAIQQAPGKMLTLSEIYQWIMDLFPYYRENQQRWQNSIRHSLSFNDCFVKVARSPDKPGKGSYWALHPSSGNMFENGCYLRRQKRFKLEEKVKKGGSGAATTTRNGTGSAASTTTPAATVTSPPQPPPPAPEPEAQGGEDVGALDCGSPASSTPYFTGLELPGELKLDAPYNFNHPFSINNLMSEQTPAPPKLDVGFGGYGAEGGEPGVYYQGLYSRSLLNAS
The experiment is described as above.

Results are given in words; binding and its absence hold for the method and conditions named. In cells and extracts the contact can be indirect. Some binding calls cover weakened binding; strength is not graded here.

B1: FOXA1 (forkhead box A1) (protein, UniProt P55317 1-472)
chain: MLGTVKMEGHETSDWNSYYADTQEAYSSVPVSNMNSGLGSMNSMNTYMTMNTMTTSGNMTPASFNMSYANPGLGAGLSPGAVAGMPGGSAGAMNSMTAAGVTAMGTALSPSGMGAMGAQQAASMNGLGPYAAAMNPCMSPMAYAPSNLGRSRAGGGGDAKTFKRSYPHAKPPYSYISLITMAIQQAPSKMLTLSEIYQWIMDLFPYYRQNQQRWQNSIRHSLSFNDCFVKVARSPDKPGKGSYWTLHPDSGNMFENGCYLRRQKRFKCEKQPGAGGGGGSGSGGSGAKGGPESRKDPSGASNPSADSPLHRGVHGKTGQLEGAPAPGPAASPQTLDHSGATATGGASELKTPASSTAPPISSGPGALASVPASHPAHGLAPHESQLHLKGDPHYSFNHPFSINNLMSSSEQQHKLDFKAYEQALQYSPYGSTLPASLPLGSASVTTRSPIEPSALEPAYYQGVYSRPVLNTS
Turning to B1, the binding entry in experiment [1] is listed as “binds”; in experiment [2], “no binding”.

B2: FOXA3 (forkhead box A3) (protein, UniProt P55318 1-350)
chain: MLGSVKMEAHDLAEWSYYPEAGEVYSPVTPVPTMAPLNSYMTLNPLSSPYPPGGLPASPLPSGPLAPPAPAAPLGPTFPGLGVSGGSSSSGYGAPGPGLVHGKEMPKGYRRPLAHAKPPYSYISLITMAIQQAPGKMLTLSEIYQWIMDLFPYYRENQQRWQNSIRHSLSFNDCFVKVARSPDKPGKGSYWALHPSSGNMFENGCYLRRQKRFKLEEKVKKGGSGAATTTRNGTGSAASTTTPAATVTSPPQPPPPAPEPEAQGGEDVGALDCGSPASSTPYFTGLELPGELKLDAPYNFNHPFSINNLMSEQTPAPPKLDVGFGGYGAEGGEPGVYYQGLYSRSLLNAS
Regarding B2, the binding result in experiment [1] was “binds”.
